Source: PMC12050090

By UniProt entry, the sequences of proteins in these tests, tags left out.
UniProt P23258: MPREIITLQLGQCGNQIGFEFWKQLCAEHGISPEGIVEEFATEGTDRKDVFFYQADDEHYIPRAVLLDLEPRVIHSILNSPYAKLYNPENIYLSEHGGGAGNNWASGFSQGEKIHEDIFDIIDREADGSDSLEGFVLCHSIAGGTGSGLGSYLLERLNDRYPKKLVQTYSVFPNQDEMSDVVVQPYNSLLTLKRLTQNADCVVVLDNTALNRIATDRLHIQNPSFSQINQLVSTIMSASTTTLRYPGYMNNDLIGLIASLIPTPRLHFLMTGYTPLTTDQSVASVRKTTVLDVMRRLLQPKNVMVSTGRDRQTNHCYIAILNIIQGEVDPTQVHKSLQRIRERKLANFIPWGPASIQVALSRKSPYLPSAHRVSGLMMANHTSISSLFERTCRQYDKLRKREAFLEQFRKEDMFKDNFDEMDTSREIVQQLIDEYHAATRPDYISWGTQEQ
UniProt P78527: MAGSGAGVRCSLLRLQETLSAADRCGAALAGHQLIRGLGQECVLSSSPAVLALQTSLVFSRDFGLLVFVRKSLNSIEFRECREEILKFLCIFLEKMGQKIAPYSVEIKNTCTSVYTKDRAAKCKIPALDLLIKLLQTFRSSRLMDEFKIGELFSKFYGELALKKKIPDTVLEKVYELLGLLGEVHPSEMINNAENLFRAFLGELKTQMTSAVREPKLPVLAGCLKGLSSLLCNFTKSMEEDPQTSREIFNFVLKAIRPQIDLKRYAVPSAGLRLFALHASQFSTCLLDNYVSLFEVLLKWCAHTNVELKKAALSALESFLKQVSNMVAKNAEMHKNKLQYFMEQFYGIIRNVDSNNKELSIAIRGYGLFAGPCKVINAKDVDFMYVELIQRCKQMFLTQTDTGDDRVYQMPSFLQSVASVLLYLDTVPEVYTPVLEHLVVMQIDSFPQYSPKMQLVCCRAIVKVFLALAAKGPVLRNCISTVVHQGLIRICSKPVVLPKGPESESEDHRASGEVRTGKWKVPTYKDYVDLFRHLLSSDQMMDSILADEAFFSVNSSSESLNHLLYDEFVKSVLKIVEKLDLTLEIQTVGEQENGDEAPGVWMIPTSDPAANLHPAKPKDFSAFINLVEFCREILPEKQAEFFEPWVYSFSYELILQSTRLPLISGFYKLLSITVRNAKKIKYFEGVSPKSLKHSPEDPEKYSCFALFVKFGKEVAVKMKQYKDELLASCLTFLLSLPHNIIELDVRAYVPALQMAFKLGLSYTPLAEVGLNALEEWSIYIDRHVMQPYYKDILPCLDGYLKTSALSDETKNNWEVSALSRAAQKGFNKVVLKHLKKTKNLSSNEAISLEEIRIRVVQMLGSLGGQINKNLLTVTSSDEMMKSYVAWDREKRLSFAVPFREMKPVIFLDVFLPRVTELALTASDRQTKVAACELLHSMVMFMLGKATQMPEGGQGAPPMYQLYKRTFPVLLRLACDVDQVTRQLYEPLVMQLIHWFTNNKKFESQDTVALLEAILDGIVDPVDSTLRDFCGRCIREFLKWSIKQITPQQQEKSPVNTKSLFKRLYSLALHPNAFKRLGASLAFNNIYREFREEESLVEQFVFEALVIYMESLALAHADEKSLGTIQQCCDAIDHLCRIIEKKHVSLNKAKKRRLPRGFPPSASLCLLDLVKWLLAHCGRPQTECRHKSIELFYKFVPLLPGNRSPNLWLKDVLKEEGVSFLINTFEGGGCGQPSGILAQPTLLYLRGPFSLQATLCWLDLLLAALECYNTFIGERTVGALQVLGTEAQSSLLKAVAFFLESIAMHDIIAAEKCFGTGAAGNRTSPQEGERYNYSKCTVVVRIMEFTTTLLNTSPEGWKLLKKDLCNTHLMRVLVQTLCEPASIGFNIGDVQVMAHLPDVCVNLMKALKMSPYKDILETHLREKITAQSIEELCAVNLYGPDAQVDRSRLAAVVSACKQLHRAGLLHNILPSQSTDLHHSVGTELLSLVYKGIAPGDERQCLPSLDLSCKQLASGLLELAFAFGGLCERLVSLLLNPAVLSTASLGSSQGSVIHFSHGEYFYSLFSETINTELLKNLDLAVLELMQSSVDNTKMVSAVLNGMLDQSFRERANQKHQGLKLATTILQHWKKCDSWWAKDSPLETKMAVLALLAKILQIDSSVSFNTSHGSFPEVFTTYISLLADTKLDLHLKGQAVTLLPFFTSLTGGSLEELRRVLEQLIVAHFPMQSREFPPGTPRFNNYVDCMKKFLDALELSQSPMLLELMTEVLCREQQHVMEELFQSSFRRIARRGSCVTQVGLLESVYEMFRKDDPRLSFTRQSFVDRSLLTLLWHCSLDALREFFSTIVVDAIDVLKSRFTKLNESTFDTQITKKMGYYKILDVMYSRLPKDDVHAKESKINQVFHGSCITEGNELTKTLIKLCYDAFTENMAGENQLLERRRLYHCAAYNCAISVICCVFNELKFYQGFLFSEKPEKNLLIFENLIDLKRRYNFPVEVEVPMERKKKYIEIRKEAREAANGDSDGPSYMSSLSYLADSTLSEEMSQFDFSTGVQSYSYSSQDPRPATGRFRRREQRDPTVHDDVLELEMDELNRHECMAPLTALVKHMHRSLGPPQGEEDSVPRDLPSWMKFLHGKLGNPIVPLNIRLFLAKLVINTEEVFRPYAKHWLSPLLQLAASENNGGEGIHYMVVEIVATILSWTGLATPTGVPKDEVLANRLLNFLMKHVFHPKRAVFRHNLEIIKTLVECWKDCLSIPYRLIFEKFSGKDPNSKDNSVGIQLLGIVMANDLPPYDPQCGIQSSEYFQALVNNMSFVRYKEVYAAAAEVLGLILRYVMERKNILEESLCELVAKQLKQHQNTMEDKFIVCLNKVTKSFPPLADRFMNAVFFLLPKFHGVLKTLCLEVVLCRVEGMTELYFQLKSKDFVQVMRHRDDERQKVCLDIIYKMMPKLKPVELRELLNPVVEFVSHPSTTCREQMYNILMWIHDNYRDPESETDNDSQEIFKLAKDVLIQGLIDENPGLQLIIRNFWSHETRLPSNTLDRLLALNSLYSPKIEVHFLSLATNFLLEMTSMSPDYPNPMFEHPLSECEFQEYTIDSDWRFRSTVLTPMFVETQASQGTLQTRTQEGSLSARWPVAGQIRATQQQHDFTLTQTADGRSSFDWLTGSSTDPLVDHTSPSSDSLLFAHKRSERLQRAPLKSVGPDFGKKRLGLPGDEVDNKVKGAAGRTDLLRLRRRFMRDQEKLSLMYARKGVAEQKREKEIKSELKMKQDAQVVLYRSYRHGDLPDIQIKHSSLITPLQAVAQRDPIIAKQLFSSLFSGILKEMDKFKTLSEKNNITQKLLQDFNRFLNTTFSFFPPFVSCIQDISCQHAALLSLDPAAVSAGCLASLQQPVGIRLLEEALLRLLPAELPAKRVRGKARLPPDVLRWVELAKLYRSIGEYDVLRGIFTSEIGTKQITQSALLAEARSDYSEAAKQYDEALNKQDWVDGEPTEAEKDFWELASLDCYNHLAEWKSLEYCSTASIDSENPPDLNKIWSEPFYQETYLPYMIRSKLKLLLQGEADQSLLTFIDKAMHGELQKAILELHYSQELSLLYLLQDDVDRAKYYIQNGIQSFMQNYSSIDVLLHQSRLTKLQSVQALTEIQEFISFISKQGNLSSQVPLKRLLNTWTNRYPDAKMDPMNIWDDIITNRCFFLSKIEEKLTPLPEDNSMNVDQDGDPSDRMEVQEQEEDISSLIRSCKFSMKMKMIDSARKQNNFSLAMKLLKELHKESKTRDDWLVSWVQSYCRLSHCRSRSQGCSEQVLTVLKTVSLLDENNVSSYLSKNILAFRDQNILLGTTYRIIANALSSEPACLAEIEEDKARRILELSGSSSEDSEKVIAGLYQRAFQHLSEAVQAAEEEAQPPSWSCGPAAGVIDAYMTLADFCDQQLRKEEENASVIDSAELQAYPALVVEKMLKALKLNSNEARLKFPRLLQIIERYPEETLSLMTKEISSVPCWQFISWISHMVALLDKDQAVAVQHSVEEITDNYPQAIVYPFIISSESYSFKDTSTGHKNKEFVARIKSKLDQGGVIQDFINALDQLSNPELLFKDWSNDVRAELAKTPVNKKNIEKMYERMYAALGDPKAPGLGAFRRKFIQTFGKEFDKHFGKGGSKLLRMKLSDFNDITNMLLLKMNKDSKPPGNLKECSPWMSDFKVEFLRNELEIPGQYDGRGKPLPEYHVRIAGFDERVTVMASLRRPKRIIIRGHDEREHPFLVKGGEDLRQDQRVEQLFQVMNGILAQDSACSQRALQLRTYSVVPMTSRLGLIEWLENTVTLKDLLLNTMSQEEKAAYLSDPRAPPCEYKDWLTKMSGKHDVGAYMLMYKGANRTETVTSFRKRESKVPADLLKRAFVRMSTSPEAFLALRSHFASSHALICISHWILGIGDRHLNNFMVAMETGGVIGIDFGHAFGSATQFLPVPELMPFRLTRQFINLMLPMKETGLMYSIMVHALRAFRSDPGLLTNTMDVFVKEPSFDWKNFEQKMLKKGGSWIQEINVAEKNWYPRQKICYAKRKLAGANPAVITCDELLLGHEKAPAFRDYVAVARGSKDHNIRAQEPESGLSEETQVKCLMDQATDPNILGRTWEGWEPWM
UniProt P09874: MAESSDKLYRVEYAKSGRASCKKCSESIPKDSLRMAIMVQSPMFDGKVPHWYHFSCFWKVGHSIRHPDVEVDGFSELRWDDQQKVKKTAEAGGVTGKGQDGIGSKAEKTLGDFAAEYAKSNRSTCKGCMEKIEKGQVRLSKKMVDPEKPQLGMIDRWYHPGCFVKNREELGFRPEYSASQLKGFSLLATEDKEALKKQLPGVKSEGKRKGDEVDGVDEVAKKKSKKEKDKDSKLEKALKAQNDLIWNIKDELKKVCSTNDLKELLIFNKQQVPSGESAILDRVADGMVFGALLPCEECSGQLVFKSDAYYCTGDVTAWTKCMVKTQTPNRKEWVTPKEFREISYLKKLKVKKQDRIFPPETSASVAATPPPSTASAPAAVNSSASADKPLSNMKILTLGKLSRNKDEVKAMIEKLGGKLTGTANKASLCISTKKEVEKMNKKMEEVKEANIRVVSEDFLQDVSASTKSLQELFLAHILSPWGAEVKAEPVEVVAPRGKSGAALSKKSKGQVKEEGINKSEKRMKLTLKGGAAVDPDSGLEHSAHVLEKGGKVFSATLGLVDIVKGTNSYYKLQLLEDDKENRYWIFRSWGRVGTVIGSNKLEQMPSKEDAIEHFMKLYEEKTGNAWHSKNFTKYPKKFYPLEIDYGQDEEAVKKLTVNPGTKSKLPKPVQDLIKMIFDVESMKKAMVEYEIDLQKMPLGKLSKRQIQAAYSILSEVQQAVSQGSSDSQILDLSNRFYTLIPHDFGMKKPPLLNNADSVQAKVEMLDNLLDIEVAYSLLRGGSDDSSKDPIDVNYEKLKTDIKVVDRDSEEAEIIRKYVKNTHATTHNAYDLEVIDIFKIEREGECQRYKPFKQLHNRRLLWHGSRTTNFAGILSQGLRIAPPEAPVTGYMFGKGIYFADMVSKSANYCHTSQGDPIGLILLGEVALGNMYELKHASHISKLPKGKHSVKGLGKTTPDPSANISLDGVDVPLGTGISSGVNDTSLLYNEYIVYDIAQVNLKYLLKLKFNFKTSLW

Target: γ-tubulin (human (endogenous in HeLa)) (UniProt P23258)
Test: affinity purification with mass spectrometry; anti-γ-tubulin antibody on magnetic beads incubated with HeLa cell lysates, cells untreated or treated with bleomycin (20 µM, 3 h); washed three times with PBS; control with blank beads; proteomic analysis

Substance | binding
catalytic subunit (DNA-PKcs) of the DNA-dependent protein kinase complex (from UniProt P78527 1-4128) | binds
poly-ADP-ribose polymerase 1 (from UniProt P09874 1-1014) | binds

Results are given in words; binding and its absence hold for the method and conditions named. Binding seen in cells or lysates may run through a third protein. These calls come from enrichment with a bait or labelling near it, and not all partners need be listed.
